Source: the supplement of paper PMC10849652
This is one part of the list.

The chains behind the UniProt entries cited, without tags or fusion partners. Where a name states a change or a piece, a line headed by the entry shows the natural chain unless it says otherwise.
UniProt Q96HJ9: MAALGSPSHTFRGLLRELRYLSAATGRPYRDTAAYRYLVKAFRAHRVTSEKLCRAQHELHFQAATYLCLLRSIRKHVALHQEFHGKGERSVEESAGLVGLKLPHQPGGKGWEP
UniProt Q8N8J7: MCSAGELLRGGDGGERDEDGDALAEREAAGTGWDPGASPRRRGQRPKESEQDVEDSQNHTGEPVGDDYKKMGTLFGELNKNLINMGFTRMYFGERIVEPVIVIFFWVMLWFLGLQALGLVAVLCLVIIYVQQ
UniProt Q8TAV0: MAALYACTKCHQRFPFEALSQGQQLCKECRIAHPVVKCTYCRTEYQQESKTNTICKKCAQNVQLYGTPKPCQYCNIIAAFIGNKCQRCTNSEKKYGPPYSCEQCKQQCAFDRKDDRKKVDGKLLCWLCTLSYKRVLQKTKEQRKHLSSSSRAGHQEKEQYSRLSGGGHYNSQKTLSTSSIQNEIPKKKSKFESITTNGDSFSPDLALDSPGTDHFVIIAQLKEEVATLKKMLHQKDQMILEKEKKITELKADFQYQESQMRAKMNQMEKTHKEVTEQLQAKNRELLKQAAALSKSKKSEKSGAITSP
UniProt Q6P3S6: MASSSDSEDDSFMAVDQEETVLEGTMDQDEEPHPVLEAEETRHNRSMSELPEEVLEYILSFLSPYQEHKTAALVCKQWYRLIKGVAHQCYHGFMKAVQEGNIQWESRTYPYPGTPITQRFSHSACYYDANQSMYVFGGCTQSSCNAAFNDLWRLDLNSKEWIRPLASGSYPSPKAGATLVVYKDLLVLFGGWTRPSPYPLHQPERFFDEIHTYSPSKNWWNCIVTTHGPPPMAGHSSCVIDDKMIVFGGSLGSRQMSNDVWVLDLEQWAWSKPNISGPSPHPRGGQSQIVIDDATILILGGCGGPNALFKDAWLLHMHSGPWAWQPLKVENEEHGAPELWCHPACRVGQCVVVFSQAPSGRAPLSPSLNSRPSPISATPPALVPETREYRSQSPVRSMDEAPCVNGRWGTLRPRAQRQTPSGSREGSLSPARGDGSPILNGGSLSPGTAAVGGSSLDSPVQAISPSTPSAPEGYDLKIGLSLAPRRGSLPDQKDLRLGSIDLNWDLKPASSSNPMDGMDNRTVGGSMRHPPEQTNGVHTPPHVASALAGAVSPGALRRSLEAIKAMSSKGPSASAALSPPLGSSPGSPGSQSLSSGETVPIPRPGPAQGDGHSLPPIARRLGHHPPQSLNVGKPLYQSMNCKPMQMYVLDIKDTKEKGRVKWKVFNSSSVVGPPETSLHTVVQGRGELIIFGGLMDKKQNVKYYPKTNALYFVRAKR
UniProt O14526: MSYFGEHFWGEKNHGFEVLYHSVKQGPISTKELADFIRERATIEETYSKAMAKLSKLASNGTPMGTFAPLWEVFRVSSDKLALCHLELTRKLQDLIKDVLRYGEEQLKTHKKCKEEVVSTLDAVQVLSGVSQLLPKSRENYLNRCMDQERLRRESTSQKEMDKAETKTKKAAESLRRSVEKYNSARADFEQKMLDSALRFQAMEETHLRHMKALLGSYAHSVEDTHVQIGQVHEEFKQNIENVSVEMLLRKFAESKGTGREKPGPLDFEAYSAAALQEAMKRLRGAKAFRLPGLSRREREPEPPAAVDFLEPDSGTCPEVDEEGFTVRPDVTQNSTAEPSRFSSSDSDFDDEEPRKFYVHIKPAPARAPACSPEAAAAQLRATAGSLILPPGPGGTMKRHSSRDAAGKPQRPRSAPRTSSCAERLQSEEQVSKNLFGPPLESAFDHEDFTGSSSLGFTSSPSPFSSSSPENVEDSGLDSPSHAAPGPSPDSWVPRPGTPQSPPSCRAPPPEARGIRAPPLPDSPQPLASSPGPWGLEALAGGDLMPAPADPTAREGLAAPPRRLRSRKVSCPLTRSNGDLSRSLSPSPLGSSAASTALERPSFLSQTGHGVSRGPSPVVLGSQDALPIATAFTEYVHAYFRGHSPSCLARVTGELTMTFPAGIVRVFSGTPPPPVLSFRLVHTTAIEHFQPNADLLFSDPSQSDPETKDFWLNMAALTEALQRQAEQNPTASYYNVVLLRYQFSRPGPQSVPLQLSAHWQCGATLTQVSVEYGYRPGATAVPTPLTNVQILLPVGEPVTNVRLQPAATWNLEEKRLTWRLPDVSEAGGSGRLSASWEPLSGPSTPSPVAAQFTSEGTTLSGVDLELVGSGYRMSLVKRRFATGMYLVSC
UniProt Q9Y3D6: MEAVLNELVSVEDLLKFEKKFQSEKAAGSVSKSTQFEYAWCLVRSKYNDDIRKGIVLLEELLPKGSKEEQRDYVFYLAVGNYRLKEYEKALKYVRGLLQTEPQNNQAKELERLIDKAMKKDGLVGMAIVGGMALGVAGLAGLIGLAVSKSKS
UniProt Q14153: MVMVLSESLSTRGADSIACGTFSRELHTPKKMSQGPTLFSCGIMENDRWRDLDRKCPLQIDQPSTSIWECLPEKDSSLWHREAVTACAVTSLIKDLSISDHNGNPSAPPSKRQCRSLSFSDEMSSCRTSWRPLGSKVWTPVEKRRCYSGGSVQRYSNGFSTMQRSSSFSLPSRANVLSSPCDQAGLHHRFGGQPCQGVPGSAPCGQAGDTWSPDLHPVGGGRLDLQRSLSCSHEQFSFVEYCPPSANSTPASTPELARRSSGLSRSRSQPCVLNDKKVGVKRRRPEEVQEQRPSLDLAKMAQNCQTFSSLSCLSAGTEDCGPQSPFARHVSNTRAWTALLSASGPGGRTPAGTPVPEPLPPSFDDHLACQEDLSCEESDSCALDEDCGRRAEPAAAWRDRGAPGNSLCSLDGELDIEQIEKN
UniProt Q9BXW9: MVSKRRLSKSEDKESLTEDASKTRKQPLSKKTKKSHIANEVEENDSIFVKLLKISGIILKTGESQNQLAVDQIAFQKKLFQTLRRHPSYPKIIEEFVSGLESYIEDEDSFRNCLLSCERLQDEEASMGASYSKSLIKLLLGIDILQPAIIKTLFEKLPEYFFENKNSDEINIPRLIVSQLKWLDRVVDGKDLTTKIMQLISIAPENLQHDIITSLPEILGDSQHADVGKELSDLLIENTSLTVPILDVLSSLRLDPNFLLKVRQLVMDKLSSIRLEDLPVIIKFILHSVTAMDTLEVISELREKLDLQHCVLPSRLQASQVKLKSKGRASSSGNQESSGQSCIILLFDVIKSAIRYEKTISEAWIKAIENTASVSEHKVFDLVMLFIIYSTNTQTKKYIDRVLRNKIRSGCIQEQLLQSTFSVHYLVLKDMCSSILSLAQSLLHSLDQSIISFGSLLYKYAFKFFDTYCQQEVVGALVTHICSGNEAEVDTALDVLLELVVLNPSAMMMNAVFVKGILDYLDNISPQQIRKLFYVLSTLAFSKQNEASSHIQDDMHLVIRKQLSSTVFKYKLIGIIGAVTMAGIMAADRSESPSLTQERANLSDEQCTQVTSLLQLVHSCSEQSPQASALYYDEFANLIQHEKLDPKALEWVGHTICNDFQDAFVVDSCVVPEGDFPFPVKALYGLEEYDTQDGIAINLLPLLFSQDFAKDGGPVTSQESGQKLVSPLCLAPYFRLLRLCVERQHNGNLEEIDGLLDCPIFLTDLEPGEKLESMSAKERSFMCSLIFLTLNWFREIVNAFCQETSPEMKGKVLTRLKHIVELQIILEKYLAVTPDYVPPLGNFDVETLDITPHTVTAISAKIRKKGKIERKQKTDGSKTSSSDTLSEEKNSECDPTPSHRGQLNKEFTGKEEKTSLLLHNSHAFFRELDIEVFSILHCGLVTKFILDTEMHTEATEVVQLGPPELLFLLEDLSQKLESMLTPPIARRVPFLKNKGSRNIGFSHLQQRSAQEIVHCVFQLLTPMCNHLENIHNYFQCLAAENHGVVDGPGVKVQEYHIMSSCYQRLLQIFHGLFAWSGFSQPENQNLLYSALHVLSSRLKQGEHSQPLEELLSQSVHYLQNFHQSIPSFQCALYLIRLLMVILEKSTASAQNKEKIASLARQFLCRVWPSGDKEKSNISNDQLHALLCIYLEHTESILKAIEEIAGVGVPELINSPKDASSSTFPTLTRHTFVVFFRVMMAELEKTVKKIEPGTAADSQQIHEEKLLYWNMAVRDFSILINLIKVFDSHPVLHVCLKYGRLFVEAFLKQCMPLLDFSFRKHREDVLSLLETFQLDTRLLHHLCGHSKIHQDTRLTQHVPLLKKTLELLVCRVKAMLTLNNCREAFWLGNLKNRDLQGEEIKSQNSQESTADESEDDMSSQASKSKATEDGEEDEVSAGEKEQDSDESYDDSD
UniProt P98173: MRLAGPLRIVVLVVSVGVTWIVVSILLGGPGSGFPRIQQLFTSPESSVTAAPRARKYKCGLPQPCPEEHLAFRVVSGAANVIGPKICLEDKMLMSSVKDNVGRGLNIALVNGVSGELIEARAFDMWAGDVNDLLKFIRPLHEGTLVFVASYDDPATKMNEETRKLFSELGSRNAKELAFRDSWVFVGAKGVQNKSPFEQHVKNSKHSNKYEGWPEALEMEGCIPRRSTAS
UniProt Q96CD0: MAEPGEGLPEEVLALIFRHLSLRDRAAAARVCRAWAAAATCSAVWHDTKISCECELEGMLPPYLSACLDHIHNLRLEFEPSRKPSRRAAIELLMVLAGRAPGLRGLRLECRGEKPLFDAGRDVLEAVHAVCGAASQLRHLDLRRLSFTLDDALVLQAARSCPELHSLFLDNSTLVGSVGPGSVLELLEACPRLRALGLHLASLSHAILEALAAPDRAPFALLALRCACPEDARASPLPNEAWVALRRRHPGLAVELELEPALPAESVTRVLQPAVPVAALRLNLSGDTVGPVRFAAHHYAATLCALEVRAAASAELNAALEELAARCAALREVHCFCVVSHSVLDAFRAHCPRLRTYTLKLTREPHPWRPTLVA
UniProt O43427: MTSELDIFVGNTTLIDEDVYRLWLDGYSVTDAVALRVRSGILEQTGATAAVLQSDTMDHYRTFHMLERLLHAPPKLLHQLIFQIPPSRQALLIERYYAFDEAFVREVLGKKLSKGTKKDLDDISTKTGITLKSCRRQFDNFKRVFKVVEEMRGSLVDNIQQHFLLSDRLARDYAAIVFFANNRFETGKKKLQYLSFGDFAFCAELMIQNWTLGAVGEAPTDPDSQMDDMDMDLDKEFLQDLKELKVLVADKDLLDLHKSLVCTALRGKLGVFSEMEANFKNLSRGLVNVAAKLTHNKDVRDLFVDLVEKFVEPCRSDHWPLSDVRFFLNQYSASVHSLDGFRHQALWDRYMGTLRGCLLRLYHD
UniProt Q86WN1: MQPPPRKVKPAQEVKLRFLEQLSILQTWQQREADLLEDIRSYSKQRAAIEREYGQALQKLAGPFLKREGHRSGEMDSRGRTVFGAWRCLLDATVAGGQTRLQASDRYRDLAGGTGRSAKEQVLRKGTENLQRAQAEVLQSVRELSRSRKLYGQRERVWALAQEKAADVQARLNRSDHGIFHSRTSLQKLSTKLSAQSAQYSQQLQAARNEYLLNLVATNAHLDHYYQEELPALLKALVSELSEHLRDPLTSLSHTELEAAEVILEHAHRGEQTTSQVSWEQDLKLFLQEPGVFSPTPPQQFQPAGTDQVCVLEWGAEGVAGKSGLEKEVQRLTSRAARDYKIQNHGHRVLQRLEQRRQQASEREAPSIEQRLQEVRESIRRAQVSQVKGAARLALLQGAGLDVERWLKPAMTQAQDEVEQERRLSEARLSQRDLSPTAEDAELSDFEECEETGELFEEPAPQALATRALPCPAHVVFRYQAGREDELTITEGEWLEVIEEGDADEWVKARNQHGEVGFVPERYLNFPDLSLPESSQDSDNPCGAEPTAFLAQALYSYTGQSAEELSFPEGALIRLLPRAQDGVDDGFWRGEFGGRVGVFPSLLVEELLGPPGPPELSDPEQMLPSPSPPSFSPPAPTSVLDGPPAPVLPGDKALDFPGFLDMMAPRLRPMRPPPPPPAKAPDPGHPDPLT
UniProt Q9UK97: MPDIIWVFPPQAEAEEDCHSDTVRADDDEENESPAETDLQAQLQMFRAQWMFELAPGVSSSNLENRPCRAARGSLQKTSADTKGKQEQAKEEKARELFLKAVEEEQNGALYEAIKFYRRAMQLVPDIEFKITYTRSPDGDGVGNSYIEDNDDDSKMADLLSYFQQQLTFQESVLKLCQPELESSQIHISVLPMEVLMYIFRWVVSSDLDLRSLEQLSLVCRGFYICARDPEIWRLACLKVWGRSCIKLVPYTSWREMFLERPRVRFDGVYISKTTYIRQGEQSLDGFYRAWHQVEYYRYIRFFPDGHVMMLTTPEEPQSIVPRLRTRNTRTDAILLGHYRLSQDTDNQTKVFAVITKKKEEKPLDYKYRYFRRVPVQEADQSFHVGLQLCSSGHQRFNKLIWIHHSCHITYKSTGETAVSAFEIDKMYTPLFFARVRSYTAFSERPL
UniProt Q96KR6: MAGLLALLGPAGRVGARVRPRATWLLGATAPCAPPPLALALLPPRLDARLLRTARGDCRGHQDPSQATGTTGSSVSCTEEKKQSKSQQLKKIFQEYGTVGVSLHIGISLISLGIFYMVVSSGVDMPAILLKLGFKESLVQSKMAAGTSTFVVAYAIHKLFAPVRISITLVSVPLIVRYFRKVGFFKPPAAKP

compound: CN1CCc2c(c3ccccc3n2Cc2ccc(C(=O)NO)cc2)C1 [Tubastatin A]; experiment: log2 fold change, soluble protein after heating vs DMSO (PISA); higher = thermal stabilisation; K562 cells, 10 uM, 30 min; active = over 0.2 and 3.5 SD of the protein, either way, in both replicates (recomputed)
How it was run: (§1)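 Values are thermal stability changes relative to control samples and are taken from duplicates. They are stated as log2 fold changes. Before quantification by TMTpro 16plex LC-MS/MS with equalised channel sums, K562 cells at 2×10^6 cells/mL were treated with 10 μM compound for 30 min, heated in aliquots for 3 min across 48°C-58°C, pooled, extracted in PBS with 0.5% NP-40 at 4°C, and centrifuged at 21,000xg for 90 min to give the soluble supernatant.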

log2 fold change, inactive:
FMC1 (UniProt Q96HJ9) 0.034
FAM241A (UniProt Q8N8J7) -0.035
FNTA (UniProt P49354) -0.068
FAM76A isoform 3 (UniProt Q8TAV0) -0.075
FAM222B (UniProt Q8WU58) 0.161
FDPS (UniProt P14324) 0.062
FBXO6 (UniProt Q9NRD1) -0.016
FAT2 (UniProt Q9NYQ8) 0.144
FANCI (UniProt Q9NVI1) -0.103
FEN1 (UniProt P39748) 0.116
FAT4 (UniProt Q6V0I7) -0.037

compound: CNC(=O)C1=CC=CC=C1NC2=NC(=NC=C2Cl)NC3=C(C=C(C=C3)N4CCOCC4)OC; experiment: as above
How it was run: as §1

log2 fold change, inactive:
FGB (UniProt P02675) 0.081
FKBP4 (UniProt Q02790) 0.032
FBXO42 (UniProt Q6P3S6) -0.067
FASTKD1 (UniProt Q53R41) 0.037
FAM89A (UniProt Q96GI7) 0.003
FCHO1 (UniProt O14526) 0.043
FIS1 (UniProt Q9Y3D6) -0.012
FDFT1 (UniProt P37268) -0.002
FBXO38 (UniProt Q6PIJ6) -0.058
FECH isoform 2 (UniProt P22830) 0.245
FAM53B (UniProt Q14153) -0.403
FANCD2 isoform 1 (UniProt Q9BXW9) -0.126
FAM3A (UniProt P98173) 0.065
FER (UniProt P16591) -0.134
FBXL8 (UniProt Q96CD0) -0.072
FIBP (UniProt O43427) 0.002
FCHSD1 (UniProt Q86WN1) 0.028
FBXO9 (UniProt Q9UK97) 0.141
FMC1 (UniProt Q96HJ9) 0.113
FAM241A (UniProt Q8N8J7) 0.042
FHOD1 (UniProt Q9Y613) -0.027
FMR1 (UniProt Q06787) 0.006
FNTA (UniProt P49354) -0.028
FAM76A isoform 3 (UniProt Q8TAV0) 0.017
FAM222B (UniProt Q8WU58) 0.013
FDPS (UniProt P14324) -0.097
FBXO6 (UniProt Q9NRD1) 0.031
FAT2 (UniProt Q9NYQ8) -0.206
FANCI (UniProt Q9NVI1) -0.111
FEN1 (UniProt P39748) -0.092
FAM210B (UniProt Q96KR6) -0.008
FITM2 (UniProt Q8N6M3) 0.009
